# Laboratory results reported in patent publication US20240287564A1, “ACHOLETIN BIOPOLYMERS AND METHODS FOR ENZYMATIC SYNTHESIS” (THE UNIVERSITY OF BRITISH COLUMBIA, priority 2021, published 2024).
# By UniProt entry, the sequences of proteins in these tests, tags left out.
# UniProt A9NH41, entry or part of it: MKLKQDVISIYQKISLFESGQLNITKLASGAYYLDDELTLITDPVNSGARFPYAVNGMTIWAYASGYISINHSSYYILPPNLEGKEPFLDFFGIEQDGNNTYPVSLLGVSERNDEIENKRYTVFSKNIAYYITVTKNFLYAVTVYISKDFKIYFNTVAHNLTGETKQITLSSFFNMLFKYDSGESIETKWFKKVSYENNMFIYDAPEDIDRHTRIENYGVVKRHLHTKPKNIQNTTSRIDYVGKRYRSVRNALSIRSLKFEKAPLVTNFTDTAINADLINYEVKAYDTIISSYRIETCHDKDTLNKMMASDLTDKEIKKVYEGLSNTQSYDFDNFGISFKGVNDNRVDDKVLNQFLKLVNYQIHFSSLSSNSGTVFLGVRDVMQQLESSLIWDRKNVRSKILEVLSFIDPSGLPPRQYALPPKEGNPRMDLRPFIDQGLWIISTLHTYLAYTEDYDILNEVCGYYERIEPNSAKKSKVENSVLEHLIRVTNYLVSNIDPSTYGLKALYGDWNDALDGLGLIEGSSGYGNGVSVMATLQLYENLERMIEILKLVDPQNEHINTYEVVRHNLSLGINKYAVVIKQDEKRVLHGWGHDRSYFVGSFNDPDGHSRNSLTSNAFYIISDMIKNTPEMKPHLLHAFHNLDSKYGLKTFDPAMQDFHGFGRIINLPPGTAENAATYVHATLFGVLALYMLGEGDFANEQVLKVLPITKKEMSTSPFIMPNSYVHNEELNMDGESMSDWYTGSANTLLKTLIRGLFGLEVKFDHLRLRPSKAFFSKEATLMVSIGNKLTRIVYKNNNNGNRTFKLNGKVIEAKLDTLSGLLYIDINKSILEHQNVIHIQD
# The name of at least one read-out is uncertain.
# Molecular target: AchP (Acholeplasma laidlawii, UniProt A9NH41)
# Assay: AchP reverse phosphorolysis kinetics (phosphate release, molybdenum blue)
# Format: biochemical
# Details: donor αGlc1-P 10 mM; acceptor concentration varied
# Description: Kinetic parameters for AchP reverse phosphorolysis were determined using the phosphate release method described previously^44. In brief, phosphate release was coupled to the formation of molybdenum blue, which can be quantified by measuring absorbance at 655 nm. Phosphate concentration was determined using a standard curve ranging between 0 and 10 mM phosphate. Kinetic parameters for AchP were determined with four donor and acceptor combinations: (A) Glc1-P and GlcNAc, (B) Glc1-P and GalNAc, (C) GlcNAc1-P and GlcNAc, and (D) GlcNAc1-P and GalNAc. Donor concentration was held constant at 10 mM while the concentrations of the acceptors were varied (as described below). Reactions were initiated by adding 5 μL of 0.25 mg/mL AchP to 10 μL 2× buffer (200 mM HEPES pH 7.0, 200 mM NaCl, 10 mM MgSO4 and 400 mM sodium molybdate), 2.5 μL of 100 mM donor, 2.5 μL of […] acceptor and 5 μL water. Reactions were stopped at the times (t) indicated below by boiling for 5 min, then 20 μL from each reaction was transferred to a 96-well plate. Molybdenum blue formation was initiated by adding 90 μL of color development solution (0.1 N HCl and 0.24% sodium ascorbate) then incubated for 30 min at room temperature. […] Absorbance at 655 nm was measured with a BioTek Synergy H1 Hybrid™ microtiter plate reader. […]
smiles,measurement,value
"CC(=O)NC1C(O)[C@@H](O)C(CO)O[C@@H]1O (stereo partly shown) [GalNAc, N-acetylgalactosamine]",kcat/Km,80 ± 40 M⁻¹ s⁻¹
